# Measurements: article PMC7389684
# Chains of the proteins cited; added tags and fusions are not shown.
# UniProt Q14457: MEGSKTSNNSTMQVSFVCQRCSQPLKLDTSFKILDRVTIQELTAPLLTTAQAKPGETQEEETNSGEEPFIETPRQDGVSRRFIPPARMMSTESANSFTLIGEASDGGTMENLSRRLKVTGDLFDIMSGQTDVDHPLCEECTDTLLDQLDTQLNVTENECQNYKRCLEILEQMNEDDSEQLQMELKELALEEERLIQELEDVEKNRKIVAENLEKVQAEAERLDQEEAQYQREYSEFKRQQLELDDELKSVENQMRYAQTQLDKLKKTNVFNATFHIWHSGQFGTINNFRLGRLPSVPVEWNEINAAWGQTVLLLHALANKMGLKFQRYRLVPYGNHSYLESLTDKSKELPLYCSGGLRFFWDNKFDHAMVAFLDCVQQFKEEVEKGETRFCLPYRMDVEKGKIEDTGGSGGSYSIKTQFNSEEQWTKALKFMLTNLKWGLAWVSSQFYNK
# UniProt P10415: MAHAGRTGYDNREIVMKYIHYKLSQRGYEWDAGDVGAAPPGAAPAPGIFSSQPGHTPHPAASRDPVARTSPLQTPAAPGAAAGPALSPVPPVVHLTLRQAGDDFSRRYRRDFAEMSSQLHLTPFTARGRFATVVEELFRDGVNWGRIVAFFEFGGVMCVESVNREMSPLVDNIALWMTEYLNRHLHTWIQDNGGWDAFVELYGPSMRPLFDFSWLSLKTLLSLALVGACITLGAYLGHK
# Results are given in words; binding and its absence hold for the method and conditions named. In cells and extracts the contact can be indirect. Some results given as binding are weak or reduced against the parent protein; the word gives no strength.
# Target: Beclin1/BECN1 (human (endogenous in PANC-1)) (UniProt Q14457)
# Assay: co-IP; endogenous proteins from PANC-1 lysates in RIPA lysis buffer (50 mM Tris-HCl pH 7.4, 150 mM NaCl, 1% Triton X-100, 10 mM NaF, 1 mM EDTA); primary antibody overnight, protein A/G magnetic beads 2 h at 4 °C, western blot; cells with PVT1 knockdown, PVT1 overexpression, miR-619-5p mimics and/or gemcitabine (1 μM)
substance,measurement,value
Bcl2 (from UniProt P10415 1-239),binding,binds
